Consider three molecules from paper PMC7708490.

Sequences of proteins named here, by UniProt entry; tags and fusion partners are left off.
UniProt Q14680: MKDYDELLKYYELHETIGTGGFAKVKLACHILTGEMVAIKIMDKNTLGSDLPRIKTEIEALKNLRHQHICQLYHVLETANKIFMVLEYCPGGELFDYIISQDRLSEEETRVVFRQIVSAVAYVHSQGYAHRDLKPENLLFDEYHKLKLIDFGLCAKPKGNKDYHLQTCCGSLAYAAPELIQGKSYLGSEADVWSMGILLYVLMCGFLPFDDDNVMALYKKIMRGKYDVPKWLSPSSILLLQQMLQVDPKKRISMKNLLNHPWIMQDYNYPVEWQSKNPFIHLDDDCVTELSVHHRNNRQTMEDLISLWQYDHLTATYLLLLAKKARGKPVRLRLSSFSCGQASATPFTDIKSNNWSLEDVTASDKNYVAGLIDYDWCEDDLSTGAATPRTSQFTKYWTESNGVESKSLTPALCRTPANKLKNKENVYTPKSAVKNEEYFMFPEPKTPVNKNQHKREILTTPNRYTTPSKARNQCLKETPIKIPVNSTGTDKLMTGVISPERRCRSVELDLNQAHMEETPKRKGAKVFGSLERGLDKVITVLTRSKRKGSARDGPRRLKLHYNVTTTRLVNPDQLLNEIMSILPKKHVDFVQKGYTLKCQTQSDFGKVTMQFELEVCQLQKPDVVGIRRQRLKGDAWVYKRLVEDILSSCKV
UniProt P12004: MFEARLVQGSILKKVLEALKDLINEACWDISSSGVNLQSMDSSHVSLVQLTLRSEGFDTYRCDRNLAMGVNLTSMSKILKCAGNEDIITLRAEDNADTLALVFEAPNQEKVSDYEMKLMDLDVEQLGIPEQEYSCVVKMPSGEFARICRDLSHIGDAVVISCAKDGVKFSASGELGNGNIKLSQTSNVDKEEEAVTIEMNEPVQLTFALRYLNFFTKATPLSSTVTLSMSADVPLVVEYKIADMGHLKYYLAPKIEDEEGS

Assay [1] deals with Maternal embryonic leucine zipper kinase (MELK), Myc-DDK tagged, from pCMV6-MELK-Myc-DDK (UniProt Q14680). As to the kind of experiment: co-IP; 293T cells transfected with pMELK (pCMV6-MELK-Myc-DDK) or pNC for 24 h; lysate mixed with DDK-conjugated agarose beads overnight at 4 °C; pellets washed with TBS five times; Western blot.
Assay [2] shares this target. Described as above. The source holds these as a separate data set.

Like-named read-outs stand apart in the source and are kept apart here. These are yes or no findings as the source states them, for the method shown. In cells and extracts the contact can be indirect. Some entries that bind do so weakly or less than the wild type.

As to PCNA (from UniProt P12004 1-261), the binding result in assay [1] is recorded as “binds”.

B1: Slug (protein, UniProt O43623 1-268)
chain: MPRSFLVKKHFNASKKPNYSELDTHTVIISPYLYESYSMPVIPQPEILSSGAYSPITVWTTAAPFHAQLPNGLSPLSGYSSSLGRVSPPPPSDTSSKDHSGSESPISDEEERLQSKLSDPHAIEAEKFQCNLCNKTYSTFSGLAKHKQLHCDAQSRKSFSCKYCDKEYVSLGALKMHIRTHTLPCVCKICGKAFSRPWLLQGHIRTHTGEKPFSCPHCNRAFADRSNLRAHLQTHSDVKKYQCKNCSKTFSRMSLLHKHEESGCCVAH
In the case of B1, the binding result in assay [2] is listed as “binds”.

B2: SPAG5 (protein, UniProt Q96R06 1-1193)
chain: MWRVKKLSLSLSPSPQTGKPSMRTPLRELTLQPGALTNSGKRSPACSSLTPSLCKLGLQEGSNNSSPVDFVNNKRTDLSSEHFSHSSKWLETCQHESDEQPLDPIPQISSTPKTSEEAVDPLGNYMVKTIVLVPSPLGQQQDMIFEARLDTMAETNSISLNGPLRTDDLVREEVAPCMGDRFSEVAAVSEKPIFQESPSHLLEESPPNPCSEQLHCSKESLSSRTEAVREDLVPSESNAFLPSSVLWLSPSTALAADFRVNHVDPEEEIVEHGAMEEREMRFPTHPKESETEDQALVSSVEDILSTCLTPNLVEMESQEAPGPAVEDVGRILGSDTESWMSPLAWLEKGVNTSVMLENLRQSLSLPSMLRDAAIGTTPFSTCSVGTWFTPSAPQEKSTNTSQTGLVGTKHSTSETEQLLCGRPPDLTALSRHDLEDNLLSSLVILEVLSRQLRDWKSQLAVPHPETQDSSTQTDTSHSGITNKLQHLKESHEMGQALQQARNVMQSWVLISKELISLLHLSLLHLEEDKTTVSQESRRAETLVCCCFDLLKKLRAKLQSLKAEREEARHREEMALRGKDAAEIVLEAFCAHASQRISQLEQDLASMREFRGLLKDAQTQLVGLHAKQEELVQQTVSLTSTLQQDWRSMQLDYTTWTALLSRSRQLTEKLTVKSQQALQERDVAIEEKQEVSRVLEQVSAQLEECKGQTEQLELENSRLATDLRAQLQILANMDSQLKELQSQHTHCAQDLAMKDELLCQLTQSNEEQAAQWQKEEMALKHMQAELQQQQAVLAKEVRDLKETLEFADQENQVAHLELGQVECQLKTTLEVLRERSLQCENLKDTVENLTAKLASTIADNQEQDLEKTRQYSQKLGLLTEQLQSLTLFLQTKLKEKTEQETLLLSTACPPTQEHPLPNDRTFLGSILTAVADEEPESTPVPLLGSDKSAFTRVASMVSLQPAETPGMEESLAEMSIMTTELQSLCSLLQESKEEAIRTLQRKICELQARLQAQEEQHQEVQKAKEADIEKLNQALCLRYKNEKELQEVIQQQNEKILEQIDKSGELISLREEVTHLTRSLRRAETETKVLQEALAGQLDSNCQPMATNWIQEKVWLSQEVDKLRVMFLEMKNEKEKLMIKFQSHRNILEENLRRSDKELEKLDDIVQHIYKTLLSIPEVVRGCKELQGLLEFLS
In the case of B2, in assay [2], the binding result was “binds”.
